Test results published in the supplement of paper PMC11546906.
Where a name gives a salt, the structure may show the parent alone. This is one part of the list. Single values are uncertain here, since repeats match poorly.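 FDA-approved drugs were each paired with colistin at one-eighth its MIC and screened against a multidrug-resistant, mcr-1-positive clinical E. coli isolate, with OD600 read after 24 h. Drug-free bacteria served as growth control, plain broth as blank. Combinations were active if OD600 dropped below 0.2.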

Test system: Escherichia coli 42 (mcr-1-positive clinical isolate)
Experiment: OD600 after 24 h growth with compound plus colistin (absorbance units (OD600)); higher = more bacterial growth (less inhibition)
Settings: first compound 25 µM; colistin concentration 0.5 ug/mL; incubation time 24 h; 37 °C

OD600, inactive:
Nc1nc2ccc(OC(F)(F)F)cc2s1 [Riluzole] + CCC(C)CCCC(=O)N[C@@H](CCN)C(=O)N[C@H](C(=O)N[C@@H](CCN)C(=O)N[C@H]1CCNC(=O)[C@H]([C@@H](C)O)NC(=O)[C@H](CCN)NC(=O)[C@H](CCN)NC(=O)[C@H](CC(C)C)NC(=O)[C@@H](CC(C)C)NC(=O)[C@H](CCN)NC1=O)[C@@H](C)O [colistin] 1.03
CCCC(=O)OCOC(=O)C1=C(C)NC(C)=C(C(=O)OC)C1c1cccc(Cl)c1Cl (stereo unspecified) [Clevidipine] + CCC(C)CCCC(=O)N[C@@H](CCN)C(=O)N[C@H](C(=O)N[C@@H](CCN)C(=O)N[C@H]1CCNC(=O)[C@H]([C@@H](C)O)NC(=O)[C@H](CCN)NC(=O)[C@H](CCN)NC(=O)[C@H](CC(C)C)NC(=O)[C@@H](CC(C)C)NC(=O)[C@H](CCN)NC1=O)[C@@H](C)O [colistin] 1.08
CCC1=C(C)CN(C(=O)NCCc2ccc(S(=O)(=O)NC(=O)N[C@H]3CC[C@H](C)CC3)cc2)C1=O [Glimepiride] + CCC(C)CCCC(=O)N[C@@H](CCN)C(=O)N[C@H](C(=O)N[C@@H](CCN)C(=O)N[C@H]1CCNC(=O)[C@H]([C@@H](C)O)NC(=O)[C@H](CCN)NC(=O)[C@H](CCN)NC(=O)[C@H](CC(C)C)NC(=O)[C@@H](CC(C)C)NC(=O)[C@H](CCN)NC1=O)[C@@H](C)O [colistin] 0.968
Nc1nc(=O)[nH]cc1F [Flucytosine] + CCC(C)CCCC(=O)N[C@@H](CCN)C(=O)N[C@H](C(=O)N[C@@H](CCN)C(=O)N[C@H]1CCNC(=O)[C@H]([C@@H](C)O)NC(=O)[C@H](CCN)NC(=O)[C@H](CCN)NC(=O)[C@H](CC(C)C)NC(=O)[C@@H](CC(C)C)NC(=O)[C@H](CCN)NC1=O)[C@@H](C)O [colistin] 0.827
COc1ccc2[nH]c([S+]([O-])Cc3ncc(C)c(OC)c3C)nc2c1 (stereo unspecified) [Omeprazole] + CCC(C)CCCC(=O)N[C@@H](CCN)C(=O)N[C@H](C(=O)N[C@@H](CCN)C(=O)N[C@H]1CCNC(=O)[C@H]([C@@H](C)O)NC(=O)[C@H](CCN)NC(=O)[C@H](CCN)NC(=O)[C@H](CC(C)C)NC(=O)[C@@H](CC(C)C)NC(=O)[C@H](CCN)NC1=O)[C@@H](C)O [colistin] 1.12
O=c1[nH]c(=O)n([C@H]2C[C@H](O)[C@@H](CO)O2)cc1I [Idoxuridine] + CCC(C)CCCC(=O)N[C@@H](CCN)C(=O)N[C@H](C(=O)N[C@@H](CCN)C(=O)N[C@H]1CCNC(=O)[C@H]([C@@H](C)O)NC(=O)[C@H](CCN)NC(=O)[C@H](CCN)NC(=O)[C@H](CC(C)C)NC(=O)[C@@H](CC(C)C)NC(=O)[C@H](CCN)NC1=O)[C@@H](C)O [colistin] 1.28
Nc1ccc(/N=N/c2ccccc2)c(N)n1 [Phenazopyridine hydrochloride] + CCC(C)CCCC(=O)N[C@@H](CCN)C(=O)N[C@H](C(=O)N[C@@H](CCN)C(=O)N[C@H]1CCNC(=O)[C@H]([C@@H](C)O)NC(=O)[C@H](CCN)NC(=O)[C@H](CCN)NC(=O)[C@H](CC(C)C)NC(=O)[C@@H](CC(C)C)NC(=O)[C@H](CCN)NC1=O)[C@@H](C)O [colistin] 0.779
CCOc1nc2cccc(C(=O)O)c2n1Cc1ccc(-c2ccccc2-c2noc(=O)[nH]2)cc1 [Azilsartan] + CCC(C)CCCC(=O)N[C@@H](CCN)C(=O)N[C@H](C(=O)N[C@@H](CCN)C(=O)N[C@H]1CCNC(=O)[C@H]([C@@H](C)O)NC(=O)[C@H](CCN)NC(=O)[C@H](CCN)NC(=O)[C@H](CC(C)C)NC(=O)[C@@H](CC(C)C)NC(=O)[C@H](CCN)NC1=O)[C@@H](C)O [colistin] 1.16
CCC(C)n1ncn(-c2ccc(N3CCN(c4ccc(OCC5COC(Cn6cncn6)(c6ccc(Cl)cc6Cl)O5)cc4)CC3)cc2)c1=O (stereo unspecified) [Itraconazole] + CCC(C)CCCC(=O)N[C@@H](CCN)C(=O)N[C@H](C(=O)N[C@@H](CCN)C(=O)N[C@H]1CCNC(=O)[C@H]([C@@H](C)O)NC(=O)[C@H](CCN)NC(=O)[C@H](CCN)NC(=O)[C@H](CC(C)C)NC(=O)[C@@H](CC(C)C)NC(=O)[C@H](CCN)NC1=O)[C@@H](C)O [colistin] 1.08
Cc1cnc(Nc2ccc(OCCN3CCCC3)cc2)nc1Nc1cccc(S(=O)(=O)NC(C)(C)C)c1 [Fedratinib] + CCC(C)CCCC(=O)N[C@@H](CCN)C(=O)N[C@H](C(=O)N[C@@H](CCN)C(=O)N[C@H]1CCNC(=O)[C@H]([C@@H](C)O)NC(=O)[C@H](CCN)NC(=O)[C@H](CCN)NC(=O)[C@H](CC(C)C)NC(=O)[C@@H](CC(C)C)NC(=O)[C@H](CCN)NC1=O)[C@@H](C)O [colistin] 0.9
c1ccc2[nH]c(-c3cscn3)nc2c1 [Thiabendazole] + CCC(C)CCCC(=O)N[C@@H](CCN)C(=O)N[C@H](C(=O)N[C@@H](CCN)C(=O)N[C@H]1CCNC(=O)[C@H]([C@@H](C)O)NC(=O)[C@H](CCN)NC(=O)[C@H](CCN)NC(=O)[C@H](CC(C)C)NC(=O)[C@@H](CC(C)C)NC(=O)[C@H](CCN)NC1=O)[C@@H](C)O [colistin] 0.792
CC(C)[N+](C)(CCOC(=O)C1c2ccccc2Oc2ccccc21)C(C)C [Propantheline bromide] + CCC(C)CCCC(=O)N[C@@H](CCN)C(=O)N[C@H](C(=O)N[C@@H](CCN)C(=O)N[C@H]1CCNC(=O)[C@H]([C@@H](C)O)NC(=O)[C@H](CCN)NC(=O)[C@H](CCN)NC(=O)[C@H](CC(C)C)NC(=O)[C@@H](CC(C)C)NC(=O)[C@H](CCN)NC1=O)[C@@H](C)O [colistin] 0.983
O=C(CCCN1CCC(O)(c2ccc(Cl)cc2)CC1)c1ccc(F)cc1 [Haloperidol] + CCC(C)CCCC(=O)N[C@@H](CCN)C(=O)N[C@H](C(=O)N[C@@H](CCN)C(=O)N[C@H]1CCNC(=O)[C@H]([C@@H](C)O)NC(=O)[C@H](CCN)NC(=O)[C@H](CCN)NC(=O)[C@H](CC(C)C)NC(=O)[C@@H](CC(C)C)NC(=O)[C@H](CCN)NC1=O)[C@@H](C)O [colistin] 0.871
CCN(CC)CCNC(=O)c1cc(Cl)c(N)cc1OC [Metoclopramide hydrochloride] + CCC(C)CCCC(=O)N[C@@H](CCN)C(=O)N[C@H](C(=O)N[C@@H](CCN)C(=O)N[C@H]1CCNC(=O)[C@H]([C@@H](C)O)NC(=O)[C@H](CCN)NC(=O)[C@H](CCN)NC(=O)[C@H](CC(C)C)NC(=O)[C@@H](CC(C)C)NC(=O)[C@H](CCN)NC1=O)[C@@H](C)O [colistin] 1.08
N=C(N)NC(=O)c1nc(Cl)c(N)nc1N [Amiloride hydrochloride dihydrate] + CCC(C)CCCC(=O)N[C@@H](CCN)C(=O)N[C@H](C(=O)N[C@@H](CCN)C(=O)N[C@H]1CCNC(=O)[C@H]([C@@H](C)O)NC(=O)[C@H](CCN)NC(=O)[C@H](CCN)NC(=O)[C@H](CC(C)C)NC(=O)[C@@H](CC(C)C)NC(=O)[C@H](CCN)NC1=O)[C@@H](C)O [colistin] 1.04
CC[C@@H]([C@H](C)O)n1ncn(-c2ccc(N3CCN(c4ccc(OC[C@@H]5CO[C@@](Cn6cncn6)(c6ccc(F)cc6F)C5)cc4)CC3)cc2)c1=O [Posaconazole] + CCC(C)CCCC(=O)N[C@@H](CCN)C(=O)N[C@H](C(=O)N[C@@H](CCN)C(=O)N[C@H]1CCNC(=O)[C@H]([C@@H](C)O)NC(=O)[C@H](CCN)NC(=O)[C@H](CCN)NC(=O)[C@H](CC(C)C)NC(=O)[C@@H](CC(C)C)NC(=O)[C@H](CCN)NC1=O)[C@@H](C)O [colistin] 1.12
CC(=O)c1c(C)c2cnc(Nc3ccc(N4CCNCC4)cn3)nc2n(C2CCCC2)c1=O [Palbociclib monohydrochloride] + CCC(C)CCCC(=O)N[C@@H](CCN)C(=O)N[C@H](C(=O)N[C@@H](CCN)C(=O)N[C@H]1CCNC(=O)[C@H]([C@@H](C)O)NC(=O)[C@H](CCN)NC(=O)[C@H](CCN)NC(=O)[C@H](CC(C)C)NC(=O)[C@@H](CC(C)C)NC(=O)[C@H](CCN)NC1=O)[C@@H](C)O [colistin] 1
O=C1c2cccc3c2[C@H](CCC3)CN1[C@@H]1CN2CCC1CC2 [Palonosetron hydrochloride] + CCC(C)CCCC(=O)N[C@@H](CCN)C(=O)N[C@H](C(=O)N[C@@H](CCN)C(=O)N[C@H]1CCNC(=O)[C@H]([C@@H](C)O)NC(=O)[C@H](CCN)NC(=O)[C@H](CCN)NC(=O)[C@H](CC(C)C)NC(=O)[C@@H](CC(C)C)NC(=O)[C@H](CCN)NC1=O)[C@@H](C)O [colistin] 1.07
CC(C)c1c(C(=O)Nc2ccccc2)c(-c2ccccc2)c(-c2ccc(F)cc2)n1CC[C@@H](O)C[C@@H](O)CC(=O)O [Atorvastatin hemicalcium salt] + CCC(C)CCCC(=O)N[C@@H](CCN)C(=O)N[C@H](C(=O)N[C@@H](CCN)C(=O)N[C@H]1CCNC(=O)[C@H]([C@@H](C)O)NC(=O)[C@H](CCN)NC(=O)[C@H](CCN)NC(=O)[C@H](CC(C)C)NC(=O)[C@@H](CC(C)C)NC(=O)[C@H](CCN)NC1=O)[C@@H](C)O [colistin] 0.919
C[C@]12CC[C@@H]3c4ccc(O)cc4CC[C@H]3[C@@H]1CCC2=O [Estrone] + CCC(C)CCCC(=O)N[C@@H](CCN)C(=O)N[C@H](C(=O)N[C@@H](CCN)C(=O)N[C@H]1CCNC(=O)[C@H]([C@@H](C)O)NC(=O)[C@H](CCN)NC(=O)[C@H](CCN)NC(=O)[C@H](CC(C)C)NC(=O)[C@@H](CC(C)C)NC(=O)[C@H](CCN)NC1=O)[C@@H](C)O [colistin] 0.902
NC(=O)N1c2ccccc2C=Cc2ccccc21 [Carbamazepine] + CCC(C)CCCC(=O)N[C@@H](CCN)C(=O)N[C@H](C(=O)N[C@@H](CCN)C(=O)N[C@H]1CCNC(=O)[C@H]([C@@H](C)O)NC(=O)[C@H](CCN)NC(=O)[C@H](CCN)NC(=O)[C@H](CC(C)C)NC(=O)[C@@H](CC(C)C)NC(=O)[C@H](CCN)NC1=O)[C@@H](C)O [colistin] 0.843

Not a retest: entries from further up.
OD600, inactive:
Nc1nc2ccc(OC(F)(F)F)cc2s1 [Riluzole] + CCC(C)CCCC(=O)N[C@@H](CCN)C(=O)N[C@H](C(=O)N[C@@H](CCN)C(=O)N[C@H]1CCNC(=O)[C@H]([C@@H](C)O)NC(=O)[C@H](CCN)NC(=O)[C@H](CCN)NC(=O)[C@H](CC(C)C)NC(=O)[C@@H](CC(C)C)NC(=O)[C@H](CCN)NC1=O)[C@@H](C)O [colistin] 1.03
CCCC(=O)OCOC(=O)C1=C(C)NC(C)=C(C(=O)OC)C1c1cccc(Cl)c1Cl (stereo unspecified) [Clevidipine] + CCC(C)CCCC(=O)N[C@@H](CCN)C(=O)N[C@H](C(=O)N[C@@H](CCN)C(=O)N[C@H]1CCNC(=O)[C@H]([C@@H](C)O)NC(=O)[C@H](CCN)NC(=O)[C@H](CCN)NC(=O)[C@H](CC(C)C)NC(=O)[C@@H](CC(C)C)NC(=O)[C@H](CCN)NC1=O)[C@@H](C)O [colistin] 1.08
